# Measurements from ChEMBL document CHEMBL1938289, “Facile synthesis of tetracyclic azepine and oxazocine derivatives and their potential as MAPKAP-K2 (MK2) inhibitors” (Bioorg Med Chem Lett, 2012).
# Experiment: Kinetic solubility of the compound at pH 7.4
# Conditions: buffer
smiles,measurement,value
Cc1cnc2n1-c1ccc(N3CCNCC3)cc1Cc1cc(-c3ccc(Cl)cc3)oc1-2,solubility kinetic,20 µM
